Laboratory results: US10239893B2, “Controlling the isomerization rate of Azo-BF2 switches using aggregation” (THE TRUSTEES OF DARTMOUTH COLLEGE, priority 2013, dated 2019)

Assay: Photoisomerization quantum yields
Assay type: physicochemical

COc1ccc(N=[N+]2C(C#N)=C3C=Cc4ccccc4N3[B-]2(F)F)cc1 [Compound 2]
photoisomerization quantum yield Φcis→trans: 95%
photoisomerization quantum yield Φtrans→cis: 71%

COc1ccc(N=[N+]2C(C#N)=C3C=Cc4ccccc4N3[B-]2(F)F)c(OC)c1 [Compound 3]
photoisomerization quantum yield Φcis→trans: 51%
photoisomerization quantum yield Φtrans→cis: 42%
